PMC4451243
These are yes or no findings as the source states them, for the method shown. Binding seen in cells or lysates may run through a third protein. Some binding calls cover weakened binding; strength is not graded here. For some assays here: Where a sequence is shown, tags or fusion partners need not be part of it.

Chains of the proteins cited; added tags and fusions are not shown.
UniProt O00571: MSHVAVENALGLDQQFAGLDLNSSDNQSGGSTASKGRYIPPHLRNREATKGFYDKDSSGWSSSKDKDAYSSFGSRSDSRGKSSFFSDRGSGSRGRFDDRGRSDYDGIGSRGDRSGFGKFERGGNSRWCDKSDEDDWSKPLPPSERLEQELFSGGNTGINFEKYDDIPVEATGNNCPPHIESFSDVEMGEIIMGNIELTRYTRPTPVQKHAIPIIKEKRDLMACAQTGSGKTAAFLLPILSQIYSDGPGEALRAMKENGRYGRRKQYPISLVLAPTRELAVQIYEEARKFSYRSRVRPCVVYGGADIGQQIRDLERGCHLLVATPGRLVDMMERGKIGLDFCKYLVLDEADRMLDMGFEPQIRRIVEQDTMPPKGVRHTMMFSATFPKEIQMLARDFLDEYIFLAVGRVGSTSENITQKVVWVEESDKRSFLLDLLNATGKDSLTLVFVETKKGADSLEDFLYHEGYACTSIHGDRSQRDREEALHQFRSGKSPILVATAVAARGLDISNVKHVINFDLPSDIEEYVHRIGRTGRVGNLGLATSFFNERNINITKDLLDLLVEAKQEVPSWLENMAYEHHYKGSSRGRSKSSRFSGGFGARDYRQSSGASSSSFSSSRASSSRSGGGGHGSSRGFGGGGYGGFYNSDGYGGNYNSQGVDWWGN
UniProt Q03468: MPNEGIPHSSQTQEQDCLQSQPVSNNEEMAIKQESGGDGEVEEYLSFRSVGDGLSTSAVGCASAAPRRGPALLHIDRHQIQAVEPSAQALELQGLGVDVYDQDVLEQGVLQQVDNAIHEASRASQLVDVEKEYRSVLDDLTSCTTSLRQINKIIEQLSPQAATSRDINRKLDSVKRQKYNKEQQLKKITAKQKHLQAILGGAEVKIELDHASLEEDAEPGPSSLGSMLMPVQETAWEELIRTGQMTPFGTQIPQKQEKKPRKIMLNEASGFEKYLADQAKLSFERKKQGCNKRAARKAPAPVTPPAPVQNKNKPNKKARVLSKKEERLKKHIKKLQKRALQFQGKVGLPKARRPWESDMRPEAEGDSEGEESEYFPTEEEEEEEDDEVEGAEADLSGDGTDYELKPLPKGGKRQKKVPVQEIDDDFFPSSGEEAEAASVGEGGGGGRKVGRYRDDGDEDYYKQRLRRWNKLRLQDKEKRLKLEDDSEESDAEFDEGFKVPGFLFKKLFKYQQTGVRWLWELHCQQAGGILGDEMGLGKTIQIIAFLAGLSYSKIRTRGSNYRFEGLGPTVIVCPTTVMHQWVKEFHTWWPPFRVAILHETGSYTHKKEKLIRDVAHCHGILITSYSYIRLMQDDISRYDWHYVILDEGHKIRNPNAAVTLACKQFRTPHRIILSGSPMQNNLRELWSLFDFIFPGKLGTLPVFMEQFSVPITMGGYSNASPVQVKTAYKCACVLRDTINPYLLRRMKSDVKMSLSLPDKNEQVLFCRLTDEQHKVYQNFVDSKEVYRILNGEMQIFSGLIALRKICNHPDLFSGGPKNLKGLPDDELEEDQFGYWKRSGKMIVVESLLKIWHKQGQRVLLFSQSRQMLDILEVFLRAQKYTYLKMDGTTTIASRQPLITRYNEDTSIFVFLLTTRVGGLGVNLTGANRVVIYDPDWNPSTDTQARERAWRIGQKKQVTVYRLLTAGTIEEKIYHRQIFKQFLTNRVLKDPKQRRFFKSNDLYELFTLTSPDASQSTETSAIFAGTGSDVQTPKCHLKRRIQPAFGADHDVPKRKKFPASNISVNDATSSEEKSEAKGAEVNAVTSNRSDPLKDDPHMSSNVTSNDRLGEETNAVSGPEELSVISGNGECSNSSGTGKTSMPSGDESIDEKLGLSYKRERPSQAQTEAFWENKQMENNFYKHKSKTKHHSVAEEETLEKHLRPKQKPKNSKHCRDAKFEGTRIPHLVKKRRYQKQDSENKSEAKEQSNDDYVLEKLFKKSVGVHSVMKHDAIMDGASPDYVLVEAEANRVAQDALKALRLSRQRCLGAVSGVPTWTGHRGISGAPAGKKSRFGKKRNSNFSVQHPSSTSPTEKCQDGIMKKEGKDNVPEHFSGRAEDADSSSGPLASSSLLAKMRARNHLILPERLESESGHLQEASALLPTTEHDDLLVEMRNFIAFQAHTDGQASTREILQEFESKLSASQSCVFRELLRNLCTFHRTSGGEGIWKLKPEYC

Tests used:
[1] = biological target: T1, Myc-tagged CSTF1 (human) (UniProt Q05048); assay: co-IP; lysates (RIPA buffer) of CSIAN cells co-transfected with Flag-tagged CSB and a Myc-tagged protein, 24 hr post transfection; anti-c-myc agarose overnight; Western blot with anti-Flag
T1 sequence: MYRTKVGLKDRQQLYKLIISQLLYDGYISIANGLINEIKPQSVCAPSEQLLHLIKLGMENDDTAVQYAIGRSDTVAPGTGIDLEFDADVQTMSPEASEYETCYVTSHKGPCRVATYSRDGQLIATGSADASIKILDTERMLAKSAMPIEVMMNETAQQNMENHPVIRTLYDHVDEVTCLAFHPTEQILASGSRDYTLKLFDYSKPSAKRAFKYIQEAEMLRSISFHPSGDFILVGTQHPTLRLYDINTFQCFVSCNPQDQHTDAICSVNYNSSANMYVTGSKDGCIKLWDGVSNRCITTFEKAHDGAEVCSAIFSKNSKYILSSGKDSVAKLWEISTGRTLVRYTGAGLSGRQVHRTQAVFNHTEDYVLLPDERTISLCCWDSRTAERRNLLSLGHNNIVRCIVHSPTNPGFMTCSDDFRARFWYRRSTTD

[2] = biological target: Myc-tagged DDX3X (human) (UniProt O00571); assay: as above

Substance: Flag-tagged CSB (from UniProt Q03468 1-1493)
- binding [1]: binds
- binding [2]: binds
